Assay results reported in patent US6395773B1, “Anti-drug resistant strain agents and antichlamydia agents” (Japan Science and Technology Corporation, priority 1999, dated 2002).
At least one compound was matched to its structure with a doubt left.

Tested on: methicillin-resistant Staphylococcus aureus (MRSA)
Experiment: Effect on decreasing antibiotic resistance by concomitant use of FNQ3, MRSA
Settings: with the Compound (FNQ3) 0.5 μg/ml

C[C@H]1COc2c(N3CCN(C)CC3)c(F)cc3c(=O)c(C(=O)O)cn1c23 [Levofloxacin]
decrease of the resistance of MRSA against the antibiotic (fraction of MIC): ½ to ¼

CN(C)c1ccc(O)c2c1C[C@H]1C[C@H]3[C@H](N(C)C)C(O)=C(C(N)=O)C(=O)[C@@]3(O)C(O)=C1C2=O [Minacycline]
decrease of the resistance of MRSA against the antibiotic (fraction of MIC): ½ to ¼
